At least one compound was matched to its structure with a doubt left.
Tested on: Jeko-1 cells
Experiment: Flow cytometric cell cycle / apoptosis and viability in Jeko-1 cells
Format: cell-based
Settings: dexamethasone alone, 3 days

With `C[C@@H]1C[C@H]2[C@@H]3CCC4=CC(=O)C=C[C@]4(C)[C@@]3(F)[C@@H](O)C[C@]2(C)[C@@]1(O)C(=O)CO` [dexamethasone] the “cell cycle arrest in G0/G1 phase and apoptosis” value was “barely induced”.

Source: patent US20160153998A1, “BIOMARKERS FOR PREDICTING THE SENSITIVITY OF CELLS TO IMMUNOMODULATORY COMPOUNDS DURING TREATMENT OF NON-HODGKIN'S LYMPHOMA” (Celgene Corporation, priority 2007, published 2016)
